Here are results for one sequence from US20120121533, “NUCLEIC ACID LIGANDS TO LL37” (BIOTEX, INC., published 2012).

The target in this series is T1, LL37 (human cathelicidin peptide LL-37) (Homo sapiens) (UniProt P49913).
T1 sequence (looked up): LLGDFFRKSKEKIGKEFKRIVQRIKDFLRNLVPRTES
Nature of the series: activity in cells. The conditions noted are these: 5 uM aptamer greatly decreased IFN-alpha production by pDC cultures with 10 uM LL37 + genomic DNA (ELISA); single-stranded DNA. (In an ELISA, binding on a coated surface is turned into a signal by an enzyme label.)

Where a protein sequence is shown, tags need not be part of it.

In the case of “ACTGGGTCTCACCATCGAAAATCGAAATGACTAAAAGGCC [SEQ7 (Apta#222)]”, the “functional effect of the aptamer” value is recorded as “active”.
